Experimental data: publication PMC8262776
For at least one entry, the source does not settle the construct or the ends of the probe. A negative result means that nothing was seen under these conditions. For some of these results: Protein sequences can lack the tags named with them.

Key:
Assay in all cases: EMSA
[1] = molecular target: T1, YqhC wild-type (parent) (Escherichia coli MG1655) (UniProt Q46855); conditions: parent YqhC 5-115 ng/uL; EMSA: 50 mM NaCl, 20 mM Tris-Cl (pH not stated), 1 mM DTT, 10% glycerol; 45 min on ice; native 4-16% gel in TBE at 4 C; recombinant protein; residues 1-318; protein details: C-terminal His tag (pET29b+); label: none (SYBR Green gel stain)
T1 sequence (looked up): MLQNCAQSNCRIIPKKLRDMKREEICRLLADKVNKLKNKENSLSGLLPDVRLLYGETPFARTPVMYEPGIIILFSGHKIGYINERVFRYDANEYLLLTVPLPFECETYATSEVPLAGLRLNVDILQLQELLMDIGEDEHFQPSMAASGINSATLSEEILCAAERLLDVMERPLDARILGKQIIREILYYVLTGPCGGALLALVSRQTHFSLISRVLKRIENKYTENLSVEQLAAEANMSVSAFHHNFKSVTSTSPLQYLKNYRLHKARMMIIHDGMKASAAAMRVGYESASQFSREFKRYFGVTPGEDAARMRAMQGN

[2] = molecular target: Glu3-YqhC (Escherichia coli MG1655 evolved strain Glu3) (UniProt Q46855); conditions: EMSA: 50 mM NaCl, 20 mM Tris-Cl (pH not stated), 1 mM DTT, 10% glycerol; 45 min on ice; native 4-16% gel in TBE at 4 C; recombinant protein; protein details: C-terminal His tag (pET29b+); label: none (SYBR Green gel stain)
[3] = molecular target: Glu2-YqhC (Escherichia coli MG1655 evolved strain Glu2) (UniProt Q46855); conditions: EMSA: 50 mM NaCl, 20 mM Tris-Cl (pH not stated), 1 mM DTT, 10% glycerol; 45 min on ice; native 4-16% gel in TBE at 4 C; recombinant protein; protein details: C-terminal His tag (pET29b+); label: none (SYBR Green gel stain)
[4] = molecular target: Glu1-YqhC (Escherichia coli MG1655 evolved strain Glu1) (UniProt Q46855); conditions: EMSA: 50 mM NaCl, 20 mM Tris-Cl (pH not stated), 1 mM DTT, 10% glycerol; 45 min on ice; native 4-16% gel in TBE at 4 C; recombinant protein; protein details: C-terminal His tag (pET29b+); label: none (SYBR Green gel stain)

Measured: binding result

CGCCGTAGGTAATCAATACGCGAGCATCGTGAGGAATTTGTTCGCGTAAACCAGCGATTGCGCCTTTACCAAACAGAATGCGGGTTGGGGTGTGCAGATTAAAGTTGTTCATTACTTGCTCCCTTTGCTGGGCCAATATG (double strand) [Negative ctrl probe]
no binding: all assays above
